Measurements reported in PubChem BioAssay AID652243 (Drosophila RNAi Screening Center, 2013)
Test: 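Fly regulators of androgen-dependent reporter output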 (primary screen). System: Drosophila S2R+ cells. Reagent: long dsRNA against Drosophila genes. Timing: 72 h (48 h, then 24 h hormone). Conditions: synthetic androgen R1881 at 10 nM for 24 h. Read-out: 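Per-well raw luminescence of the androgen-driven firefly reporter and of the Renilla control, two replicates each, without normalisation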. Scale: firefly reporter light: higher = more light from androgen-responsive reporter; Renilla control light: higher = more constitutive control signal (cell number, transfection). Rule for the call: 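Hit when the log firefly-to-Renilla ratio dropped or increased by a fixed fold versus the mean of GFP or LacZ controls across duplicate plates; lowering cut given as 1.5 and as 3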. Meaning of the calls: active = hit: reporter lowered or raised; inactive = no hit.
In all, the deposit lists about 24,000 reagents; this is a random part of those that have a named target and a result. Over the whole deposit, 246 (1%) got an active call. 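Plates not normalised; calls are printed but the firefly/Renilla ratio behind them is not deposited; fold cut for lowering reported inconsistently.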 Raw values vary from plate to plate and are shown uncorrected. The record does not give: the amount of reagent.

With knock-down of Pkg21D (Protein kinase, cGMP-dependent at 21D) [DRSC00772], the record shows firefly reporter light, replicate 1 = 8.40e5; firefly reporter light, replicate 2 = 1.27e6; Renilla control light, replicate 1 = 1.42e6; Renilla control light, replicate 2 = 1.54e6; inactive. Pkg21D (Protein kinase, cGMP-dependent at 21D) [DRSC29092] scored firefly reporter light, replicate 1 = 4.09e5; firefly reporter light, replicate 2 = 4.00e5; Renilla control light, replicate 1 = 1.08e6; Renilla control light, replicate 2 = 8.89e5; inactive. After knock-down of Pkg21D (Protein kinase, cGMP-dependent at 21D) [DRSC36601], the screen gave inactive. For CG3558 [DRSC00615], the entry reads firefly reporter light, replicate 1 = 8.95e5; firefly reporter light, replicate 2 = 7.02e5; Renilla control light, replicate 1 = 3.28e6; Renilla control light, replicate 2 = 1.78e6; inactive. CG3558 [DRSC29745] scored firefly reporter light, replicate 1 = 1.64e5; firefly reporter light, replicate 2 = 1.44e5; Renilla control light, replicate 1 = 8.67e5; Renilla control light, replicate 2 = 9.94e5; inactive. For dve (defective proventriculus) [DRSC04680], the entry reads firefly reporter light, replicate 1 = 1.45e5; firefly reporter light, replicate 2 = 1.44e5; Renilla control light, replicate 1 = 1.45e6; Renilla control light, replicate 2 = 1.33e6; inactive.

Silencing of dve (defective proventriculus) [DRSC28692] gave: firefly reporter light, replicate 1 = 4.42e5; firefly reporter light, replicate 2 = 4.32e5; Renilla control light, replicate 1 = 1.60e6; Renilla control light, replicate 2 = 1.77e6; inactive. With knock-down of CG42445 [DRSC10858], the record shows firefly reporter light, replicate 1 = 8.19e5; firefly reporter light, replicate 2 = 5.61e5; Renilla control light, replicate 1 = 1.72e6; Renilla control light, replicate 2 = 1.49e6; inactive. Depletion of SMC6 (Structural maintenance of chromosomes 6) [DRSC15829] came out at: firefly reporter light, replicate 1 = 2.29e5; firefly reporter light, replicate 2 = 2.48e5; Renilla control light, replicate 1 = 3.39e6; Renilla control light, replicate 2 = 3.44e6; inactive. SMC6 (Structural maintenance of chromosomes 6) [DRSC25997] scored firefly reporter light, replicate 1 = 4.20e5; firefly reporter light, replicate 2 = 4.40e5; Renilla control light, replicate 1 = 8.99e5; Renilla control light, replicate 2 = 7.46e5; inactive. Antp (Antennapedia) [DRSC23104] gave firefly reporter light, replicate 1 = 1.81e5; firefly reporter light, replicate 2 = 1.76e5; Renilla control light, replicate 1 = 9.62e5; Renilla control light, replicate 2 = 1.05e6; active. With knock-down of Antp (Antennapedia) [DRSC26749], the screen gave firefly reporter light, replicate 1 = 2.97e5; firefly reporter light, replicate 2 = 2.87e5; Renilla control light, replicate 1 = 5.78e5; Renilla control light, replicate 2 = 6.13e5; inactive.

Knock-down of wash (washout) [DRSC06302] came out at: firefly reporter light, replicate 1 = 3.37e5; firefly reporter light, replicate 2 = 2.17e5; Renilla control light, replicate 1 = 1.97e6; Renilla control light, replicate 2 = 1.45e6; inactive. With knock-down of ATPsynbeta (ATP synthase, beta subunit) [DRSC17194], the record shows firefly reporter light, replicate 1 = 2.89e5; firefly reporter light, replicate 2 = 2.71e5; Renilla control light, replicate 1 = 3.31e6; Renilla control light, replicate 2 = 2.91e6; inactive. CG4553 [DRSC15595] gave firefly reporter light, replicate 1 = 1.79e5; firefly reporter light, replicate 2 = 2.41e5; Renilla control light, replicate 1 = 2.39e6; Renilla control light, replicate 2 = 2.31e6; inactive. Depletion of CG4553 [DRSC28957] resulted in: firefly reporter light, replicate 1 = 5.05e5; firefly reporter light, replicate 2 = 3.97e5; Renilla control light, replicate 1 = 1.57e6; Renilla control light, replicate 2 = 9.18e5; inactive. For Cyp6a16Psi (retired record) [DRSC03307], the values are firefly reporter light, replicate 1 = 70130; firefly reporter light, replicate 2 = 1.23e5; Renilla control light, replicate 1 = 9.78e5; Renilla control light, replicate 2 = 1.15e6; inactive. With knock-down of Gp93 (Glycoprotein 93) [DRSC15827], the screen gave firefly reporter light, replicate 1 = 99677; firefly reporter light, replicate 2 = 67632; Renilla control light, replicate 1 = 7.32e5; Renilla control light, replicate 2 = 6.03e5; inactive.

Silencing of Gp93 (Glycoprotein 93) [DRSC27798] came out at: firefly reporter light, replicate 1 = 3.64e5; firefly reporter light, replicate 2 = 3.23e5; Renilla control light, replicate 1 = 8.38e5; Renilla control light, replicate 2 = 9.86e5; inactive. CG17377 [DRSC00950] showed firefly reporter light, replicate 1 = 4.57e5; firefly reporter light, replicate 2 = 4.07e5; Renilla control light, replicate 1 = 3.17e6; Renilla control light, replicate 2 = 2.61e6; inactive. CG17377 [DRSC02615] showed firefly reporter light, replicate 1 = 5.17e5; firefly reporter light, replicate 2 = 4.87e5; Renilla control light, replicate 1 = 1.36e6; Renilla control light, replicate 2 = 1.85e6; inactive. For CG17377 [DRSC21811], the entry reads firefly reporter light, replicate 1 = 3.65e5; firefly reporter light, replicate 2 = 3.38e5; Renilla control light, replicate 1 = 2.38e6; Renilla control light, replicate 2 = 2.88e6; inactive. Silencing of CG17377 [DRSC28817] gave: firefly reporter light, replicate 1 = 4.22e5; firefly reporter light, replicate 2 = 4.19e5; Renilla control light, replicate 1 = 8.88e5; Renilla control light, replicate 2 = 9.63e5; inactive.

2 of these entries, reformatted:
| predicted target | amplicon | firefly reporter light, replicate 1 | firefly reporter light, replicate 2 | Renilla control light, replicate 1 | Renilla control light, replicate 2 | call |
| --- | --- | --- | --- | --- | --- | --- |
| CG4553 | DRSC15595 | 1.79e5 | 2.41e5 | 2.39e6 | 2.31e6 | inactive |
| CG4553 | DRSC28957 | 5.05e5 | 3.97e5 | 1.57e6 | 9.18e5 | inactive |
